Source: PubChem BioAssay AID256 (DTP/NCI, 2004)
The list does not hold the whole screen: it is rich in T/C values a quarter to a half above the control, in often repeated tests (any T/C) and in doses without a T/C. Further doses and runs are listed elsewhere. T/C: endpoint of the treated group in % of that of the vehicle group. Some doses have a count of surviving animals in place of a T/C: the source files T/C as zero there, which appears to mark a toxic dose or a test without result, not a measured value. Some survivor counts are full or nearly so, which does not show that the dose was tolerated: survival well below the control is almost never listed, so the zero probably covers shortened survival too. Counts of survivors are from the toxicity check (mostly the fifth day) where no day follows; animals may have died later. Schedule codes are those of the source, read here as Q, the interval in days (D) or hours (H), X, the number of doses. Some doses were run more than once; their values stand side by side, smallest first. Where survival is the endpoint, the PubChem record calls one and a half times the control and up active, and a quarter to a half above the control has no call in these data; cut-offs in other NCI protocols can differ. Brackets with × give the number of equal values in this list.

Test system: CD2F1 mice, L1210 leukemia ip, survival T/C
Assay: NCI In Vivo Anticancer Drug Screen. Data for tumor model L1210 Leukemia (intraperitoneal) in CD2F1 (CDF1) mice
Conditions: higher T/C = longer survival
Procedure, shortened: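 Antitumor effect is scored in animals hosting a serially transplanted tumor. Values compare compound-dosed animals against vehicle-only controls as a simple quotient.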

[1] = T/C endpoint: mean survival time, dose: 400.0 mg/kg/injection, schedule: Q04DX002 (ip), vehicle: saline
[2] = T/C endpoint: mean survival time, dose: 400.0 mg/kg/injection, schedule: Q04DX003 (ip), vehicle: saline with Tween-80
[3] = T/C endpoint: mean survival time, dose: 100.0 mg/kg/injection, schedule: Q04DX003 (ip), vehicle: saline
[4] = T/C endpoint: mean survival time, dose: 200.0 mg/kg/injection, schedule: Q04DX003 (ip), vehicle: saline
[5] = T/C endpoint: mean survival time, dose: 400.0 mg/kg/injection, schedule: Q04DX003 (ip), vehicle: saline
[6] = T/C endpoint: mean survival time, dose: 100.0 mg/kg/injection, schedule: Q01DX009 (ip), vehicle: saline with Tween-80
[7] = T/C endpoint: mean survival time, dose: 200.0 mg/kg/injection, schedule: Q01DX009 (ip), vehicle: saline with Tween-80
[8] = T/C endpoint: mean survival time, dose: 100.0 mg/kg/injection, schedule: Q01DX001 (ip), vehicle: saline with Tween-80
[9] = T/C endpoint: mean survival time, dose: 200.0 mg/kg/injection, schedule: Q01DX001 (ip), vehicle: saline with Tween-80
[10] = T/C endpoint: mean survival time, dose: 400.0 mg/kg/injection, schedule: Q01DX001 (ip), vehicle: saline with Tween-80
[11] = T/C endpoint: mean survival time, dose: 200.0 mg/kg/injection, schedule: Q04DX002 (ip), vehicle: saline with Tween-80
[12] = T/C endpoint: mean survival time, dose: 400.0 mg/kg/injection, schedule: Q04DX002 (ip), vehicle: saline with Tween-80
[13] = T/C endpoint: mean survival time, dose: 200.0 mg/kg/injection, schedule: Q04DX003 (ip), vehicle: saline with Tween-80
[14] = T/C endpoint: mean survival time, dose: 400.0 mg/kg/injection, schedule: Q01DX001 (ip), vehicle: saline

CC(=O)OC1C2(CC3N4C(=O)C5(CO)SSC4(CC31O)C(=O)N5C)OC(C)C(C)(C)C2=O (stereo not given)
survivor count (T/C endpoint: mean survival time, dose: 1.25 mg/kg/injection, schedule: Q01DX009 (ip), vehicle: saline with Tween-80): 3 of 6
survivor count (T/C endpoint: mean survival time, dose: 2.5 mg/kg/injection, schedule: Q01DX009 (ip), vehicle: saline): 4 of 6
survivor count (T/C endpoint: mean survival time, dose: 5.0 mg/kg/injection, schedule: Q01DX009 (ip), vehicle: saline): 1 of 6 and 2 of 6
survivor count (T/C endpoint: mean survival time, dose: 10.0 mg/kg/injection, schedule: Q01DX009 (ip), vehicle: saline): 0 of 6

O=NN1CC2CCC1CC2
survivor count (T/C endpoint: mean survival time, dose: 20.0 mg/kg/injection, schedule: Q01DX001 (ip), vehicle: saline with Tween-80): 2 of 6

Nc1[nH]c(=O)[nH]c(=O)c1N
survivor count [1]: 0 of 3
survivor count [2]: 1 of 6

N=C1N(c2ccccc2)CCN1c1ccccc1
survivor count (T/C endpoint: mean survival time, dose: 25.0 mg/kg/injection, schedule: Q04DX003 (ip), vehicle: saline with Tween-80): 2 of 3
survivor count [3]: 0 of 3
survivor count [4]: 0 of 3
survivor count [5]: 0 of 3

O=C1NC(=O)C(=C/C=C/c2ccccc2)C(=O)N1
survivor count [6]: 3 of 3
survivor count [7]: 1 of 3

Cc1cccc[n+]1C
survivor count [3]: 6 of 6
survivor count [4]: 3 of 6
survivor count [5]: 0 of 6

CCOC(=O)C(=C=[N-])[n+]1ccc(C)cc1
survivor count [8]: 1 of 6
survivor count [9]: 0 of 6
survivor count [10]: 0 of 6

O=S1(=O)C=CCCC=C1
survivor count (T/C endpoint: mean survival time, dose: 200.0 mg/kg/injection, schedule: Q01DX009 (ip), vehicle: Klucel (hydroxypropylcellulose) (HPC)): 0 of 6

NC(=S)N/N=C/c1ccc(F)cn1
T/C (T/C endpoint: mean survival time, dose: 25.0 mg/kg/injection, schedule: Q04DX002 (ip), vehicle: saline with Tween-80): 139 % of control
survivor count (T/C endpoint: mean survival time, dose: 37.5 mg/kg/injection, schedule: Q04DX003 (ip), vehicle: saline with Tween-80): 5 of 10
survivor count (T/C endpoint: mean survival time, dose: 50.0 mg/kg/injection, schedule: Q04DX002 (ip), vehicle: saline with Tween-80): 1 of 3
survivor count (T/C endpoint: mean survival time, dose: 56.25 mg/kg/injection, schedule: Q04DX003 (ip), vehicle: saline with Tween-80): 0 of 10
survivor count (T/C endpoint: mean survival time, dose: 100.0 mg/kg/injection, schedule: Q04DX002 (ip), vehicle: saline with Tween-80): 0 of 3
survivor count [11]: 0 of 3
survivor count [12]: 0 of 3

Cc1cc2nc(CN)[nH]c2cc1C
survivor count [5]: 2 of 6

CCCCCCCCCCCCCCCCCC[N+]1(C)CCC1C (stereo not given)
survivor count (T/C endpoint: mean survival time, dose: 6.25 mg/kg/injection, schedule: Q01DX001 (ip), vehicle: saline): 2 of 6
survivor count (T/C endpoint: mean survival time, dose: 12.5 mg/kg/injection, schedule: Q01DX001 (ip), vehicle: saline): 1 of 6
survivor count (T/C endpoint: mean survival time, dose: 25.0 mg/kg/injection, schedule: Q01DX001 (ip), vehicle: saline): 0 of 6
survivor count (T/C endpoint: mean survival time, dose: 50.0 mg/kg/injection, schedule: Q01DX001 (ip), vehicle: saline): 0 of 6
survivor count [8]: 0 of 6
survivor count [9]: 0 of 6
survivor count [10]: 0 of 6

Nc1nc(N)c2ncn(C3CC(CO)C(O)C3O)c2n1 (stereo not given)
survivor count [6]: 3 of 3
survivor count [7]: 2 of 3

O=[N+]([O-])c1cc([N+](=O)[O-])c(Cl)s1
survivor count (T/C endpoint: mean survival time, dose: 100.0 mg/kg/injection, schedule: Q04DX003 (ip), vehicle: saline with Tween-80): 5 of 6
survivor count [13]: 0 of 6
survivor count [2]: 0 of 6

CCN(CC)C(=O)c1ccccc1
survivor count (T/C endpoint: mean survival time, dose: 400.0 mg/kg/injection, schedule: Q01DX009 (ip), vehicle: saline): 1 of 6

Oc1ccc(/C=N/N=C/c2ccc(O)c(O)c2)cc1O
survivor count (T/C endpoint: median survival time, dose: 200.0 mg/kg/injection, schedule: Q01DX009 (ip), vehicle: saline with Tween-80): 4 of 6
survivor count (T/C endpoint: median survival time, dose: 400.0 mg/kg/injection, schedule: Q01DX009 (ip), vehicle: saline with Tween-80): 0 of 6

CN(C)C(=O)On1cccc1C#N
survivor count [8]: 0 of 3
survivor count [9]: 0 of 3
survivor count [10]: 0 of 3

CCOC(CNCc1ccc(OC)cc1)OCC
survivor count [14]: 0 of 6

CCOC(=O)/C=C/CP(=O)(OCC)OCC
survivor count (T/C endpoint: mean survival time, dose: 100.0 mg/kg/injection, schedule: Q01DX001 (ip), vehicle: carboxymethylcellulose (CMC)): 0 of 4
survivor count (T/C endpoint: mean survival time, dose: 200.0 mg/kg/injection, schedule: Q01DX001 (ip), vehicle: carboxymethylcellulose (CMC)): 0 of 4
survivor count (T/C endpoint: mean survival time, dose: 400.0 mg/kg/injection, schedule: Q01DX001 (ip), vehicle: carboxymethylcellulose (CMC)): 0 of 4

CCCCSCCN
survivor count [11]: 0 of 3

Cc1ccc([NH-])cc1C.Cc1ccc([NH-])cc1C.[Cl][Pt+2][Cl]
survivor count (T/C endpoint: mean survival time, dose: 100.0 mg/kg/injection, schedule: Q04DX003 (ip), vehicle: distilled water + Tween-80): 1 of 6
survivor count (T/C endpoint: mean survival time, dose: 200.0 mg/kg/injection, schedule: Q04DX003 (ip), vehicle: distilled water + Tween-80): 0 of 6

COc1ccc2nc3cc(Cl)ccc3c(Nc3cccc(NC(C)=O)c3)c2n1
survivor count (T/C endpoint: mean survival time, dose: 200.0 mg/kg/injection, schedule: Q01DX009 (ip), vehicle: other): 0 of 6
survivor count (T/C endpoint: mean survival time, dose: 400.0 mg/kg/injection, schedule: Q01DX009 (ip), vehicle: other): 0 of 6

O=C(O)[C@H](Cc1ccccc1)N1C(=O)c2ccccc2C1=O
survivor count (T/C endpoint: median survival time, dose: 1200.0 mg/kg/injection, schedule: Q01DX005 (ip), vehicle: DMSO): 0 of 6

CO[C@@]12[C@@H]3N[C@@H]3CN1C1=C(C(=O)C(NCCN(C)C)=C(C)C1=O)[C@@H]2COC(N)=O
T/C (T/C endpoint: mean survival time, dose: 6.0 mg/kg/injection, schedule: Q01DX001 (ip), vehicle: distilled water + Tween-80): 134 % of control
T/C (T/C endpoint: mean survival time, dose: 12.0 mg/kg/injection, schedule: Q01DX001 (ip), vehicle: distilled water + Tween-80): 146 % of control
T/C (T/C endpoint: mean survival time, dose: 12.0 mg/kg/injection, schedule: Q01DX001 (ip), vehicle: water): 136 % of control

CCOC(=O)c1ccc(NC(=O)Nc2ccc(N(C)C(C)=O)cc2)cc1
survivor count [13]: 6 of 6
survivor count [2]: 6 of 6

C=CS(=O)CCCCCCC (stereo not given)
survivor count (T/C endpoint: mean survival time, dose: 100.0 mg/kg/injection, schedule: Q04DX002 (ip), vehicle: saline): 0 of 3
survivor count (T/C endpoint: mean survival time, dose: 200.0 mg/kg/injection, schedule: Q04DX002 (ip), vehicle: saline): 2 of 3
survivor count [1]: 0 of 3

CCCCNC(C)C1(O)Cc2c(O)c3c(c(O)c2C(OC2CC(N)C(O)C(C)O2)C1)C(=O)c1c(OC)cccc1C3=O (stereo not given)
T/C (T/C endpoint: mean survival time, dose: 20.0 mg/kg/injection, schedule: Q01DX009 (ip), vehicle: water): 128 % of control
T/C (T/C endpoint: mean survival time, dose: 40.0 mg/kg/injection, schedule: Q01DX009 (ip), vehicle: water): 132 % of control
T/C (T/C endpoint: mean survival time, dose: 80.0 mg/kg/injection, schedule: Q01DX009 (ip), vehicle: water): 138 % of control

S=C1NCCO1
survivor count (T/C endpoint: mean survival time, dose: 400.0 mg/kg/injection, schedule: Q01DX009 (ip), vehicle: saline with Tween-80): 3 of 6

CC(C)NCCO
survivor count (T/C endpoint: mean survival time, dose: 300.0 mg/kg/injection, schedule: Q01DX001 (ip), vehicle: saline): 0 of 6
survivor count [14]: 0 of 4

CCNC(=O)OCc1c(COC(=O)NCC)c(-c2ccc(Cl)c(Cl)c2)n2c1CCC2
T/C (T/C endpoint: mean survival time, dose: 6.25 mg/kg/injection, schedule: Q01DX009 (ip), vehicle: saline with Tween-80): 120, 122, 126, 129 % of control
T/C (T/C endpoint: mean survival time, dose: 12.5 mg/kg/injection, schedule: Q01DX009 (ip), vehicle: saline with Tween-80): 132, 140 (2×), 146 % of control
T/C (T/C endpoint: mean survival time, dose: 25.0 mg/kg/injection, schedule: Q01DX009 (ip), vehicle: saline with Tween-80): 103, 134, 137, 149 % of control
survivor count [6]: 4 of 6 and 6 of 6

CC(CCOc1ccc(Cl)cc1Cl)C(=O)O (stereo not given)
survivor count [12]: 0 of 3
